Laboratory results published in publication PMC9120966.
No constants are given. Whether binding was seen depends on the method and setting. Binding seen in cells or lysates may run through a third protein. Some entries that bind do so weakly or less than the wild type. Tags and fused reporters may be left off the sequences shown.

The chains behind the UniProt entries cited, without tags or fusion partners.
UniProt P51159: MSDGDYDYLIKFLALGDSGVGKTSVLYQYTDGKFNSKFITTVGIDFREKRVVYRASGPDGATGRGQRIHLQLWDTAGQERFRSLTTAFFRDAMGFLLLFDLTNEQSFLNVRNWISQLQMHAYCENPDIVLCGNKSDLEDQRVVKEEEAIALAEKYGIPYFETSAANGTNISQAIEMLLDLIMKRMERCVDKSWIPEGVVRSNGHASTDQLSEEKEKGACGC

Target: Flag-RAB27A (human) (UniProt P51159)
Assay: co-IP; HEK293T co-transfected with Flag-RAB27A and Myc-SHD (WT, D25H or R35W), harvested after 48 h; lysis in 150 mM NaCl, 50 mM Tris pH 7.4, 1 mM EDTA, 1% Triton-100; anti-FLAG M2 agarose at 4°C overnight; blots with anti-Flag and anti-Myc

B1: Myc-tagged SHD (WT)-MLPH (domain or fragment, UniProt Q9BV36-1 1-146)
chain: MGKKLDLSKLTDEEAQHVLEVVQRDFDLRRKEEERLEALKGKIKKESSKRELLSDTAHLNETHCARCLQPYQLLVNSKRQCLECGLFTCKSCGRVHPEEQGWICDPCHLARVVKIGSLEWYYEHVKARFKRFGSAKVIRSLHGRLQ
binding: binds
